# Library screen at single concentrations

Protein sequences, listed by entry. Tags and fused reporters are not part of them. Residues count along the entry.
UniProt I6X8D2, whole entry: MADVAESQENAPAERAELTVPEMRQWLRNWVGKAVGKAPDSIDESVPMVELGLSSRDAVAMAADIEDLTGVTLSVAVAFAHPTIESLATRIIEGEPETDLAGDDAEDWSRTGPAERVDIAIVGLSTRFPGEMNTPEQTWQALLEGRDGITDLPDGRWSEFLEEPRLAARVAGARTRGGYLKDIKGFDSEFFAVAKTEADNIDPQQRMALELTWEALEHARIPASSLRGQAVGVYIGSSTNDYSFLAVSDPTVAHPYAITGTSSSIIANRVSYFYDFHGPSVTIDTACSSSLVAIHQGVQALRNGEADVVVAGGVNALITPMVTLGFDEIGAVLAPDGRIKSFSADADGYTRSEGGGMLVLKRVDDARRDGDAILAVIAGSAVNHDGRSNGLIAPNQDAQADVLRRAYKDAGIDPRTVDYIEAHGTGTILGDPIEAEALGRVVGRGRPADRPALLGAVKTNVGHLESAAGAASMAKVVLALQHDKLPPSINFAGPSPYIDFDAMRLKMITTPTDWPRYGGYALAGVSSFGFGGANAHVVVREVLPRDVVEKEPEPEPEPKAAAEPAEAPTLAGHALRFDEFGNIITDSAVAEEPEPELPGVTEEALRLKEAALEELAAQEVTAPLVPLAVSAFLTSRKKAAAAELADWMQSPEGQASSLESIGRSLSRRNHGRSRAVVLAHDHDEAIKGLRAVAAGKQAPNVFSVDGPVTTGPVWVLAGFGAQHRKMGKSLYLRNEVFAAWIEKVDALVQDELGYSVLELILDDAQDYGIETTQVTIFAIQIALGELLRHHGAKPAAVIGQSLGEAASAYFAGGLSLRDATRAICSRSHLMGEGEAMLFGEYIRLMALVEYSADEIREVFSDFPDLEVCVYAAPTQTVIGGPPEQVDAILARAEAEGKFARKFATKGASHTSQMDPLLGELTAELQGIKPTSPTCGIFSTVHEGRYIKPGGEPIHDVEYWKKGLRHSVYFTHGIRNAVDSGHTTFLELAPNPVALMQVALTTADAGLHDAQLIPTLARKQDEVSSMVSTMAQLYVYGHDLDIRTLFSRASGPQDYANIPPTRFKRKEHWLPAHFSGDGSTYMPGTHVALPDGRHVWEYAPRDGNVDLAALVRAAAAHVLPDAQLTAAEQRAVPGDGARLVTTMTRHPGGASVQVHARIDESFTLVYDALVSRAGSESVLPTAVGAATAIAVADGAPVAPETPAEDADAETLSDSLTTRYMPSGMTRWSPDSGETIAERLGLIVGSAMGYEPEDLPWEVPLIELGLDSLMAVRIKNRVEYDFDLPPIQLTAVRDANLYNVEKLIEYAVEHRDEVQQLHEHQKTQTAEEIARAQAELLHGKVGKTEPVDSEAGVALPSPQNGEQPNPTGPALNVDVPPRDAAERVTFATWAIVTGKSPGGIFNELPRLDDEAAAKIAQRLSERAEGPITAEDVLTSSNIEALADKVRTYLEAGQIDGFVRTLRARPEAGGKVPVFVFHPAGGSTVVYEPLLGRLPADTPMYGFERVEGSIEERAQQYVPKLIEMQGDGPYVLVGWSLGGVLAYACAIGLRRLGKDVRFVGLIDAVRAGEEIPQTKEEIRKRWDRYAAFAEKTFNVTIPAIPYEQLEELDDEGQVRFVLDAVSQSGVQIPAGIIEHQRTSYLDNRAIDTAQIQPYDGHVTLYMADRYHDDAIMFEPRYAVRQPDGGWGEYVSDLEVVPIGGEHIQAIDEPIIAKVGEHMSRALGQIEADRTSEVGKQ
UniProt P9WFT3, whole entry: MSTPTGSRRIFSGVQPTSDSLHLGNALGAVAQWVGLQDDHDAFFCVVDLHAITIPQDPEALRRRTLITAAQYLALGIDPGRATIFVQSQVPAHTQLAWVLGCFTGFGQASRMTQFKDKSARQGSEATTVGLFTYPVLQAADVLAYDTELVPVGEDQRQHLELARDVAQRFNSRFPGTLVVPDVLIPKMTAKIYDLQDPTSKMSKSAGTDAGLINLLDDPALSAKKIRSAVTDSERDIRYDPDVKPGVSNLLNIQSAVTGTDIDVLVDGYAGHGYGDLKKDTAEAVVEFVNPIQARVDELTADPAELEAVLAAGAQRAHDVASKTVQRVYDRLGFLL
UniProt P9WNZ1, whole entry: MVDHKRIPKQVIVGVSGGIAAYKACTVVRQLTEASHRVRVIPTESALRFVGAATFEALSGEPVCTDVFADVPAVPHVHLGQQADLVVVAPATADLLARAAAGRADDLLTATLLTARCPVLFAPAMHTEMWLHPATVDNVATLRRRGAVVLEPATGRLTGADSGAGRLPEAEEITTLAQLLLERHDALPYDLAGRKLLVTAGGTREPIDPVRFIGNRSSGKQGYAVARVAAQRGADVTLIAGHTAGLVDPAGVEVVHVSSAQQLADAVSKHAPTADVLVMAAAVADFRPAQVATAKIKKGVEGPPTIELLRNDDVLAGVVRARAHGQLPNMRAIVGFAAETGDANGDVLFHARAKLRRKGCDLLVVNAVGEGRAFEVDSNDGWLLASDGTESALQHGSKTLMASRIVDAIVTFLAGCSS
UniProt Q8IDJ8, 1-583: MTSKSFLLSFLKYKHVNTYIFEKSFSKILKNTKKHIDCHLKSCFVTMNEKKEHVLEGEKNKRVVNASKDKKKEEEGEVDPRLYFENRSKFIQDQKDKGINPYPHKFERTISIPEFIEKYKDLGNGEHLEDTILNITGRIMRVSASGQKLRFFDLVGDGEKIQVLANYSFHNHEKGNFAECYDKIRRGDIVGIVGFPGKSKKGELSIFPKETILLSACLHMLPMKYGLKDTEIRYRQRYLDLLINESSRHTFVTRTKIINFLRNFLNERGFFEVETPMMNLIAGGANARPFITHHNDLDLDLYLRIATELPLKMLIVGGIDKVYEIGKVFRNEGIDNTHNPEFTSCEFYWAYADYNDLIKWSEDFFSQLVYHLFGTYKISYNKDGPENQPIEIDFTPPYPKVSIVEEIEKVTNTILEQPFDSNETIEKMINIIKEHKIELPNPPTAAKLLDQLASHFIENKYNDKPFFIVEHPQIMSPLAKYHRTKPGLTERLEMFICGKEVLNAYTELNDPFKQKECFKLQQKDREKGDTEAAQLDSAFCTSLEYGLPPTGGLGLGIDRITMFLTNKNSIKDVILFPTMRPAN

Measurements from “University of Dundee, Small-Polar-MMV Screening Library” (2021), ChEMBL document CHEMBL3988442.

Pks13 thioesterase: 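Polyketide synthase Pks13, Mycobacterium tuberculosis (UniProt I6X8D2). Enzyme assay of the thioesterase domain of polyketide synthase 13; the read-out is not stated. Tested at 30 µM. The record gives no direction; the compounds picked for IC50 retests had high values, so higher reads as stronger inhibition. Size under these conditions: about 67,000 compounds, about 300 of them at 50% or above in at least one test.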
MtTrpRS: 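Enzyme assay of tryptophanyl-tRNA synthetase; the read-out is not stated. Target: Tryptophan-tRNA ligase, Mycobacterium tuberculosis (UniProt P9WFT3). Compounds at 10 µM. Higher most likely means stronger inhibition; the record gives no direction and few retests gave an IC50. Size under these conditions: about 65,000 compounds, about 64 of them at 50% or above in at least one test.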
CoaBC: 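Enzyme assay of CoaBC with a phosphate dye (Biomol Green) read at 650 nm. Target: Coenzyme A biosynthesis protein CoaBC, Mycobacterium tuberculosis (UniProt P9WNZ1). Tested at 30 µM. Direction is inferred from only a few compounds that gave an IC50; most scored high, so higher reads as stronger inhibition. Most strong results did not repeat in a second test. Of about 67,000 compounds tested this way, about 40 (0.06%) reached 50% or more in at least one test.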
PfKRS1: 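Lysine-tRNA ligase, Plasmodium falciparum 3D7 (UniProt Q8IDJ8). Enzyme assay of the cytosolic lysyl-tRNA synthetase in 384-well plates, read by luminescence. Compounds at 30 µM. Direction is inferred from only a few compounds that gave an IC50; most scored high, so higher reads as stronger inhibition. Of about 69,000 compounds tested this way, about 49 (0.071%) reached 50% or more in at least one test.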

Results are given as percent effect. The record does not define 0% and 100%; most values in the screen are far below 50% and negative numbers occur (in some assays of this library far below -100). Compounds were drawn at random from those tested, without regard to their results. A dash means the value is not listed here; it may have been measured.

structure,Pks13 thioesterase,MtTrpRS,CoaBC,PfKRS1
NC(=O)CN1CCCC(Cc2ccc(N3CCOCC3)nn2)C1 (stereo not given),-21.42,0.2898,4.136,2.281
COc1ccc(CN2C[C@@H]3OCC(=O)N(Cc4nccn4C)[C@@H]3C2)cc1,-29.89,-1.138,2.87,0.681
Cc1occc1C(=O)N1CCC2(CCCN(CC3CCC3)C2=O)C1 (stereo not given),-0.6481,0.5687,4.641,4.092
O=C(Nc1nccs1)NC1CCN(Cc2ccccc2)C1 (stereo not given),-23.32,-3.192,4.663,2.954
CC(C)(C)NC(=O)NCc1cnn2ccccc12,-32.04,-6.175,3.782,3.39
COCCC(=O)N1CCC2(CCCN2Cc2ccccc2)C1 (stereo not given),-7.726,0.3856,2.945,2.661
CCn1cnnc1CNS(=O)(=O)N1CCCC1c1ccc(C)o1 (stereo not given),-7.748,0.6256,2.584,2.814
Oc1cccc(-c2cc(CC3(N(CC4CC4)CC4CC4)COC3)no2)c1,-13.97,1.602,17.49,-0.5944
CC(CCN(C)C)NC(=O)N1CCSC(C)(C)C1 (stereo not given),-,-0.8475,-2.823,2.935
O=S(=O)(Cc1ccccc1)c1nnc(N2CCOCC2)s1,-9.336,5.43,-0.3659,4.902
c1ccc(-n2cc(CN3CCCC3Cn3cccn3)nn2)cc1 (stereo not given),-15.07,13.05,3.345,-0.4288
Cc1ncc2c(n1)CN(CC1CCCCO1)CC2 (stereo not given),-13.35,1.343,9.287,76.18
Clc1ccccc1-c1nc(CNC2CCc3ncnn3C2)cs1 (stereo not given),-3.583,-0.9651,-0.7772,-2.157
NC(=O)C1CCN(C(=O)NC(Cc2ccccc2)C(F)(F)F)CC1 (stereo not given),-10.4,-0.983,0.994,6.043
CCn1ccnc1CN1CCN(C(C)C)CC1C (stereo not given),14.26,-1.867,2.948,-3.034
CC(C)c1cc(CN(C)C(=O)C(C)N2CCc3ccccc3C2)no1 (stereo not given),-7.094,0.5825,-3.855,-6.155
CN(Cc1nccn1C)C1CCN(CCc2ccccn2)CC1,-19.93,-6.434,4.337,1.463
Cc1ccc(C(=O)N2CCC(n3cc(CO)nn3)CC2)cn1,-0.7594,2.621,1.831,-2.286
COC(=O)N1CC(C)=C(C)CN1C(=O)Nc1ccc(Cl)c(Cl)c1,-1.305,-,-3.067,4.044
O=C(NC1CCCN(CCCc2ccccc2)C1)c1ccc(Cl)s1 (stereo not given),9.017,1.908,2.527,6.803
N#CC1(C(=O)N2CCN(c3nccs3)CC2)CCCCC1,-5.456,-0.6289,3.191,4.208
COCCC(=O)N1CCCN(Cc2nccn2C(C)C)CC1,-31.42,-1.789,6.489,0.4238
COCCN1CC(C(=O)NCc2ccnc(-n3cccn3)c2)CC1=O (stereo not given),-3.391,-5.122,0.2591,-0.09378
CN1CCN(c2ccccc2NC(=O)NCC[S+](C)[O-])CC1 (stereo not given),-45.14,5.436,2.408,7.173
Cc1noc(C)c1C(=O)N1CCC2(CC1)CC(Oc1ccccc1)CO2 (stereo not given),-27.57,-1.144,14.73,5.647
Cc1ccc(C(=O)N2CCN3C[C@H](Oc4cncnc4)C[C@H]3C2)cn1,-21.82,3.253,-0.6452,7.238
CNS(=O)(=O)C1CCN(c2cc(C(C)C)nc(C(C)C)n2)C1 (stereo not given),-8.767,0,-3.038,3.962
Cc1cccc(CN2CCC3(CCCN(CC(=O)N(C)C)C3)C2)n1 (stereo not given),-2.977,-2.698,3.202,-0.1694
Cc1cc(C)n(C2CCCN(C(=O)CCNc3ncccn3)C2)n1 (stereo not given),2.569,-3.455,0.6211,-0.4684
Cc1nn(C)c(C)c1-c1cnc(CC2CCNC2)cn1 (stereo not given),-6.704,-10.69,-9.132,0.8578
O=C(O)C1CCCCN1C(=O)c1cccc(C(F)(F)F)c1 (stereo not given),-15.38,-1.852,11.52,1.676
Cc1nn(C)c(N(C)C)c1CNCc1cccc(Cn2cncn2)c1,-10.7,-3.195,-0.1272,0.3027
CNc1cc(CNC(=O)c2ccccn2)nc(-c2ccncc2)n1,-31.21,2.759,-2.778,6.889
CCCc1nc(C)cc(N2CCC3(CCC(=O)N(CCO)C3)CC2)n1,-28.01,0.08794,-10.3,6.174
Cn1cnc(S(=O)(=O)N2CCCC2c2ccnc3nccn23)c1 (stereo not given),2.279,1.632,-11.62,-0.3981
CCCn1cnc(S(=O)(=O)Nc2cccnc2-n2cccn2)c1,-2.865,15.64,-,-0.5908
COc1ccnc(N2CCN(C(=O)CCc3cnn(C)c3)CC2)n1,-,1.679,7.991,-1.601
Cc1csc(NC(=O)CN2CCCC(Cn3nc(C)nc3C)C2)n1 (stereo not given),-9.82,1.976,5.882,0.6671
COC(=O)c1cc(OC)ccc1NCC(=O)NCC(=O)N1CCCC1,13.32,-0.7776,-0.8475,5.377
CN(C)c1ccc(CCCNC(=O)NCC(O)c2cccs2)cc1 (stereo not given),-11.13,-4.736,17.8,-0.7487

For reference, 3 entries once more:

structure	Pks13 thioesterase	MtTrpRS	CoaBC	PfKRS1
O=C(NC1CCCN(CCCc2ccccc2)C1)c1ccc(Cl)s1 (stereo not given)	9.017	1.908	2.527	6.803
CN(C)c1ccc(CCCNC(=O)NCC(O)c2cccs2)cc1 (stereo not given)	-11.13	-4.736	17.8	-0.7487
COC(=O)c1cc(OC)ccc1NCC(=O)NCC(=O)N1CCCC1	13.32	-0.7776	-0.8475	5.377